The supplement of paper PMC12823440, “Inhibitors supercharge kinase turnover through native proteolytic circuits” (Nature, 2025)
The list shows a part of the results. The calls rarely recur for the same compound in another form.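 Kinases, fused to nanoluciferase, were expressed in K562 cells; luminescence was measured every 4 h from 2 to 18 h as percent of control (DMSO = 100%, positive control = 0%). A time point is decreased if signal falls significantly (2 sigma). Hits were called by the authors by a rule that is not shown; the count of time points alone does not decide it.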

By UniProt entry, the sequences of proteins in these tests, tags left out. Where a name states a change or a piece, a line headed by the entry shows the natural chain unless it says otherwise.
UniProt P29317, whole entry: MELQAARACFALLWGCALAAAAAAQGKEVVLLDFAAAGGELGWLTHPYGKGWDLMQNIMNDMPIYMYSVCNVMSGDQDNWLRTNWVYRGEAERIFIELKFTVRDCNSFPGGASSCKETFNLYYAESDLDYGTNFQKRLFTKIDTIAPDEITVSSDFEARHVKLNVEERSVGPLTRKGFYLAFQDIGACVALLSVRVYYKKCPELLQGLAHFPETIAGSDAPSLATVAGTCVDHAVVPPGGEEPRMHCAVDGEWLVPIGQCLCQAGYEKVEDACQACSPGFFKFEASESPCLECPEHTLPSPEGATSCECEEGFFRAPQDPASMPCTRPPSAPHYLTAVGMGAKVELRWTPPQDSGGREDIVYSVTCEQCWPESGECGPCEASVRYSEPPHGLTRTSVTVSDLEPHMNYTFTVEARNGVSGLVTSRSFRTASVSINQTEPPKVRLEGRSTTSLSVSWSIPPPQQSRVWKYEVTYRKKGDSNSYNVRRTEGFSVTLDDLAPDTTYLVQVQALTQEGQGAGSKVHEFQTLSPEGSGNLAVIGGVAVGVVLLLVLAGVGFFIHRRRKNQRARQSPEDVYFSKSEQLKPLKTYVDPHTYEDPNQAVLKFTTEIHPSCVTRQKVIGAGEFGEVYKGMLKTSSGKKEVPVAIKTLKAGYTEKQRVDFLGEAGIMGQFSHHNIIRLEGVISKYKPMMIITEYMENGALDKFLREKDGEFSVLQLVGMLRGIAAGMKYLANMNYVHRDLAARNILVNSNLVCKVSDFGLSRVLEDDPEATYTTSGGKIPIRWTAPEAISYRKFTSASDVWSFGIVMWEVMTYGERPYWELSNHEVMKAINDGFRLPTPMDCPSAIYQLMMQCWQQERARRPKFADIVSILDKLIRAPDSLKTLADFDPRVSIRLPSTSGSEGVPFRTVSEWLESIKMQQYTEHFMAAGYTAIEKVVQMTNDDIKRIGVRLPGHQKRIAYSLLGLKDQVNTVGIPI
UniProt Q15303, whole entry R711C: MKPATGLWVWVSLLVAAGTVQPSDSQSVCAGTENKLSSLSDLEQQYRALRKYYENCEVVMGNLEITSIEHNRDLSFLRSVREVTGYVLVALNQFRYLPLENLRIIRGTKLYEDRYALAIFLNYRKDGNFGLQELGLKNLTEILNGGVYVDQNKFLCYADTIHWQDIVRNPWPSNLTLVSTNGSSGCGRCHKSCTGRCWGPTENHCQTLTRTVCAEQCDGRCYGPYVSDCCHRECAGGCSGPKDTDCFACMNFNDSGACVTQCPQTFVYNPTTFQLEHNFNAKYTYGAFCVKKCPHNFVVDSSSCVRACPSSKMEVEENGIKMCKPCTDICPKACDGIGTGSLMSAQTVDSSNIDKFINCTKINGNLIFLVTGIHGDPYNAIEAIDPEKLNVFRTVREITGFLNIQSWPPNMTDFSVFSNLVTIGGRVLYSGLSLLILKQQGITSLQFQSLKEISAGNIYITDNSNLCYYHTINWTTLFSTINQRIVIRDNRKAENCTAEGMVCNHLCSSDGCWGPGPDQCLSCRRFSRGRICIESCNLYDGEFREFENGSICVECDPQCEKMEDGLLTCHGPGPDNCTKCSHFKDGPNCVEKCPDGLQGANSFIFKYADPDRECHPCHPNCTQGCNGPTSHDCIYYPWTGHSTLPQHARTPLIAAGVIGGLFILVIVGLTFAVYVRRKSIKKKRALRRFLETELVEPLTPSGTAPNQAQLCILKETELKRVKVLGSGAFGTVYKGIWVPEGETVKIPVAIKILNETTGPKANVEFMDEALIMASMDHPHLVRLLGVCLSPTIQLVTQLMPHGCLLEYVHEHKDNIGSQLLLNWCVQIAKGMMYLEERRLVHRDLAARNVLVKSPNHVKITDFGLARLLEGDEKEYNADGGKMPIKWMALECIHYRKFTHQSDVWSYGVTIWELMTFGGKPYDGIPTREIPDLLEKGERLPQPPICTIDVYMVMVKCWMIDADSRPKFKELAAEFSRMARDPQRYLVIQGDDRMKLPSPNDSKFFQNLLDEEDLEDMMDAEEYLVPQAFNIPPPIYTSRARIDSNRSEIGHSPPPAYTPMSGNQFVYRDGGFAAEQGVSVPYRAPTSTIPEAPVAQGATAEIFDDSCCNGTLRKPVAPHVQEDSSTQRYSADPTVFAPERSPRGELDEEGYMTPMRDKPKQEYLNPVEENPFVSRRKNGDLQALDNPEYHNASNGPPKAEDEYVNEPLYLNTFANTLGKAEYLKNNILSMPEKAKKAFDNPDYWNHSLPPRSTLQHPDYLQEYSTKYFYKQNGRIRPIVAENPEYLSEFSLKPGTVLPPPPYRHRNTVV
UniProt P11362, whole entry, looked up: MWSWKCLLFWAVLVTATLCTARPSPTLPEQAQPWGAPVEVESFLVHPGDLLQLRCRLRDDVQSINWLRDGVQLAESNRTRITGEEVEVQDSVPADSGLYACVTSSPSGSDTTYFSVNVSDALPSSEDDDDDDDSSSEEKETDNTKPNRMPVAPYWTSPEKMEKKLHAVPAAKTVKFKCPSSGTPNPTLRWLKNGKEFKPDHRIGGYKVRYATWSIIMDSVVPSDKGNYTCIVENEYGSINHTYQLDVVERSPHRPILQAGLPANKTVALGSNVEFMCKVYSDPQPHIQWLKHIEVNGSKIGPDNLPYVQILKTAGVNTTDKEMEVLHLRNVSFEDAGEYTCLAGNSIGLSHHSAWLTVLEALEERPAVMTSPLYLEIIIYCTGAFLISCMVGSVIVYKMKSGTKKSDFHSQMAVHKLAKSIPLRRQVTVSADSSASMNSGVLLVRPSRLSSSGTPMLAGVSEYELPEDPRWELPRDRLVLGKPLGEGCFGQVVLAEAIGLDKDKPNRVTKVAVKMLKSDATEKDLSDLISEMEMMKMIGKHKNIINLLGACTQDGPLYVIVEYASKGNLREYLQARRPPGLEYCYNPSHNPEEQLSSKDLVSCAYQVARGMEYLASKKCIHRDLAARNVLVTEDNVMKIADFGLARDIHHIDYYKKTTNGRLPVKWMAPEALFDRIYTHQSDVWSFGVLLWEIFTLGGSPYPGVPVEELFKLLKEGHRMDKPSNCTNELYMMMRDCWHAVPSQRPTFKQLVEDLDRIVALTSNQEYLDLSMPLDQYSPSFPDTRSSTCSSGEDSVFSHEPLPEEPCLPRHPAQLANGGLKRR
UniProt P22607, whole entry, looked up: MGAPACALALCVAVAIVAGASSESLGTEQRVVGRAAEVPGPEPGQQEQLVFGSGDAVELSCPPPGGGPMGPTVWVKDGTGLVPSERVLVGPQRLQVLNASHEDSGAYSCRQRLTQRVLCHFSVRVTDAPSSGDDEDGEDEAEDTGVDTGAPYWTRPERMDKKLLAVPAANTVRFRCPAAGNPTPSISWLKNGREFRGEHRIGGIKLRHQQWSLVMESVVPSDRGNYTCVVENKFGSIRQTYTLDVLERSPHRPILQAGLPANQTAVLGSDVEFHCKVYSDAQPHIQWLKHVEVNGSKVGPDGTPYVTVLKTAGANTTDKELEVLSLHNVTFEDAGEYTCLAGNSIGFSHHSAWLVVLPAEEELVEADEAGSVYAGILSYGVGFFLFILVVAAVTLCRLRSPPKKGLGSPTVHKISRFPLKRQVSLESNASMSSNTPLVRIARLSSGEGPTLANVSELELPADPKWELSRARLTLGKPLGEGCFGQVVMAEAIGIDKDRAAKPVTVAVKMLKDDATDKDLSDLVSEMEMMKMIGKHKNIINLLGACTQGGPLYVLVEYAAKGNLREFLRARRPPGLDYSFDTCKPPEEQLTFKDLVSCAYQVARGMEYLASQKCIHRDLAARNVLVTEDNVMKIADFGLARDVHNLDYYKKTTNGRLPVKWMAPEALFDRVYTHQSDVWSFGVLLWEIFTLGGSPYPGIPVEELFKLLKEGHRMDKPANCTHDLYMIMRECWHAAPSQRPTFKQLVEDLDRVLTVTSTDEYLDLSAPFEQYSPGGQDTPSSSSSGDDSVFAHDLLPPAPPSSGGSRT
UniProt P06241, whole entry, looked up: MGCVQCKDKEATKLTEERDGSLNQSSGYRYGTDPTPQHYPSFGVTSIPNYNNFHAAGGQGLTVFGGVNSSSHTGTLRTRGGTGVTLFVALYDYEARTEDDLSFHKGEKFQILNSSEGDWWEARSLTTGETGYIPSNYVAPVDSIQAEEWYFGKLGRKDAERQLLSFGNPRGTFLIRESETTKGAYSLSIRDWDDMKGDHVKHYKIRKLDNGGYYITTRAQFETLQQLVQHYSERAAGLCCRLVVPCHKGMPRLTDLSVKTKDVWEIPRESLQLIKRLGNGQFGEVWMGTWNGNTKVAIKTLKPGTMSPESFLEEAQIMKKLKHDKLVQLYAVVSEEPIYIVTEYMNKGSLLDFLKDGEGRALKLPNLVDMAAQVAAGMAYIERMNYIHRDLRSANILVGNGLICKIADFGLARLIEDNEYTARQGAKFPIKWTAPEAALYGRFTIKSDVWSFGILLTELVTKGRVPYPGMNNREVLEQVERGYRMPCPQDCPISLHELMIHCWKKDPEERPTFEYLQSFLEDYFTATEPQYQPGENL
UniProt P49840: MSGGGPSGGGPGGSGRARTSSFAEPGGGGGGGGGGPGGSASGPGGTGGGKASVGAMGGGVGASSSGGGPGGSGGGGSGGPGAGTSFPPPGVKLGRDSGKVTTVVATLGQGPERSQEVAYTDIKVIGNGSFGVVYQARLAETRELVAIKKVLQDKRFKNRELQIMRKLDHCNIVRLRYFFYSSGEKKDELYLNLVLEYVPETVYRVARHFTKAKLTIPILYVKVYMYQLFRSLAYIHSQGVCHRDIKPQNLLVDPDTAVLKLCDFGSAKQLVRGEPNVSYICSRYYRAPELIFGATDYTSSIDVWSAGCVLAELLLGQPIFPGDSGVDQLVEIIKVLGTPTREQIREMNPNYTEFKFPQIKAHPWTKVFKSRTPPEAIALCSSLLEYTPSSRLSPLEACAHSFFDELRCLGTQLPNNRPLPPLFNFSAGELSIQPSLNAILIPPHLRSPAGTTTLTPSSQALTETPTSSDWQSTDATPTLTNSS
UniProt P14616: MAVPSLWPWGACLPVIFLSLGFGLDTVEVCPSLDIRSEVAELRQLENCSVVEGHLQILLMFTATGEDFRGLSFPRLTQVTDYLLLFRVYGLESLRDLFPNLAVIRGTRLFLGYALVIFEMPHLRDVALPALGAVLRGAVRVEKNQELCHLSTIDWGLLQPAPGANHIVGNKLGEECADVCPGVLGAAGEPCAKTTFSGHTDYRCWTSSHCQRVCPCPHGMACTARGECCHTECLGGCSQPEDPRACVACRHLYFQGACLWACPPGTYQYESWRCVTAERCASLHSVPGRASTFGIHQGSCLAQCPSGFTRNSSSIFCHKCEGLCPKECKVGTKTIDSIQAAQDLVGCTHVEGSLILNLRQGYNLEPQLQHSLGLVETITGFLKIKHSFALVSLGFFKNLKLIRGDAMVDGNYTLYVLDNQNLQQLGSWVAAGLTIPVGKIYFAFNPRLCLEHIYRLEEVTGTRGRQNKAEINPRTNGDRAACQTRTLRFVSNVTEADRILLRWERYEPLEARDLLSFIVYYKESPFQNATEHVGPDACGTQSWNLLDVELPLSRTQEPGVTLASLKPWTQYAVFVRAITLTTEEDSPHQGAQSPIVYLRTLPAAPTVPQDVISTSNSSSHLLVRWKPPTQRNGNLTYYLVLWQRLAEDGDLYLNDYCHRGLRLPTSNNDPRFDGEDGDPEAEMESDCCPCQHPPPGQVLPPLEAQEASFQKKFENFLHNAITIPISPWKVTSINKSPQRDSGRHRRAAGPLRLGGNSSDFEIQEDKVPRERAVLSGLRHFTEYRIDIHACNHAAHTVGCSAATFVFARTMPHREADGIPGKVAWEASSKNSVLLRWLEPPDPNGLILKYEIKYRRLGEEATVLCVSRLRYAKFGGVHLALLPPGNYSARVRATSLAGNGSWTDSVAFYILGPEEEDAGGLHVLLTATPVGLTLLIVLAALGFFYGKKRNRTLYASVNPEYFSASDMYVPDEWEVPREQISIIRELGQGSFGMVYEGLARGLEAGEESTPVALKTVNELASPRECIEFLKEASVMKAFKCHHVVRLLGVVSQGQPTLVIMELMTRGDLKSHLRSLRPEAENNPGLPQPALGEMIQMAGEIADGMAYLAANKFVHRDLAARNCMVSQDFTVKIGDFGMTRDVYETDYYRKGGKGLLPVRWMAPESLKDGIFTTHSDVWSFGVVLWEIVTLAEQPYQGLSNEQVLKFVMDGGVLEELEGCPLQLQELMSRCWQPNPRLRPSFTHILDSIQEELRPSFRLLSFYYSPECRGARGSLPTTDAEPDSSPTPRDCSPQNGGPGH

Tests used:
Experiment in all cases: kinase-Nluc reporter destabilization hit call (1 = scored as downregulated) (binary); higher = compound decreases kinase abundance
Conditions in all cases: K562; 2-18 h
EGFR = EGFR (UniProt P00533)
EGFR_G719S = EGFR_G719S (UniProt P00533)
EGFR_G719S_T790M = EGFR_G719S_T790M (UniProt P00533)
EGFR_L718V = EGFR_L718V (UniProt P00533)
EGFR_L858R = EGFR_L858R (UniProt P00533)
EGFR_L861Q = EGFR_L861Q (UniProt P00533)
EGFR_T790M = EGFR_T790M (UniProt P00533)
EPHA2 = EPHA2 (UniProt P29317)
ERBB3 = ERBB3 (UniProt P21860)
[1] = biological target: ERBB4_R711C (clone: ERBB4_mut) (UniProt Q15303)
ERN1 = ERN1 (UniProt O75460)
FGFR1 = FGFR1 (UniProt P11362)
FGFR2 = FGFR2 (UniProt P21802)
FGFR3 = FGFR3 (UniProt P22607)
FGR = FGR (UniProt P09769)
FLT3 = FLT3 (UniProt P36888)
FYN = FYN (UniProt P06241)
GSK3A = GSK3A (UniProt P49840)
HER2 = HER2 (UniProt P04626)
INSRR = INSRR (UniProt P14616)

Measured: kinase-Nluc reporter destabilization hit call

O=C(NCCCNc1nc(Nc2cccc(NC(=O)N3CCCC3)c2)ncc1I)c1cccs1 (2.5 µM)
inactive: EGFR 0 | EGFR_G719S 0 | EGFR_G719S_T790M 0 | EGFR_L718V 0 | EGFR_L858R 0 | EGFR_L861Q 0 | EGFR_T790M 0 | EPHA2 = 0 | ERBB3 = 0 | [1] 0 | ERN1 = 0 | FGFR1 = 0 | FGFR2 = 0 | FGFR3 = 0 | FGR 0 | FLT3 = 0 | FYN 0 | GSK3A 0 | HER2 = 0 | INSRR 0

O=C1NC(=O)/C(=C/c2ccc3c(c2)OC(F)(F)O3)S1 (10 µM)
inactive: EGFR 0 | EGFR_G719S 0 | EGFR_G719S_T790M 0 | EGFR_L718V 0 | EGFR_L858R 0 | EGFR_L861Q 0 | EGFR_T790M 0 | EPHA2 = 0 | ERBB3 = 0 | [1] 0 | ERN1 = 0 | FGFR1 = 0 | FGFR2 = 0 | FGFR3 = 0 | FGR 0 | FLT3 = 0 | FYN 0 | GSK3A 0 | HER2 = 0 | INSRR 0

COc1ccc(C(=C2C(=O)Nc3ccccc32)c2ccc(OC)cc2)cc1 (10 µM)
inactive: EGFR 0 | EGFR_G719S 0 | EGFR_G719S_T790M 0 | EGFR_L718V 0 | EGFR_L858R 0 | EGFR_L861Q 0 | EGFR_T790M 0 | EPHA2 = 0 | ERBB3 = 0 | [1] 0 | ERN1 = 0 | FGFR1 = 0 | FGFR2 = 0 | FGFR3 = 0 | FGR 0 | FLT3 = 0 | FYN 0 | GSK3A 0 | HER2 = 0 | INSRR 0

CN(CC(=O)N(Cc1ccc(C2CCCCC2)cc1)c1ccc(C(=O)O)cc1)S(=O)(=O)c1c(F)c(F)c(F)c(F)c1F (2.5 µM)
inactive: EGFR 0 | EGFR_G719S 0 | EGFR_G719S_T790M 0 | EGFR_L718V 0 | EGFR_L858R 0 | EGFR_L861Q 0 | EGFR_T790M 0 | EPHA2 = 0 | ERBB3 = 0 | [1] 0 | ERN1 = 0 | FGFR1 = 0 | FGFR2 = 0 | FGFR3 = 0 | FGR 0 | FLT3 = 0 | FYN 0 | GSK3A 0 | HER2 = 0 | INSRR 0

C=CC(=O)Nc1cc2c(Nc3ccc(OCc4ccccn4)c(Cl)c3)ncnc2cc1OCCN1CCOCC1 (10 µM)
inactive: EGFR 0 | EGFR_G719S 0 | EGFR_G719S_T790M 0 | EGFR_L718V 0 | EGFR_L858R 0 | EGFR_L861Q 0 | EGFR_T790M 0 | EPHA2 = 0 | ERBB3 = 0 | [1] 0 | ERN1 = 0 | FGFR1 = 0 | FGFR2 = 0 | FGFR3 = 0 | FGR 0 | FLT3 = 0 | FYN 0 | GSK3A 0 | INSRR 0
active: HER2 = 1

CCn1c(=O)c(-c2ccc(-c3cncs3)cc2Cl)cc2cnc(Nc3ccc(N4CCN(C)CC4)cc3)nc21 (2.5 µM)
inactive: EGFR 0 | EGFR_G719S 0 | EGFR_G719S_T790M 0 | EGFR_L718V 0 | EGFR_L858R 0 | EGFR_L861Q 0 | EGFR_T790M 0 | EPHA2 = 0 | ERBB3 = 0 | [1] 0 | ERN1 = 0 | FGFR1 = 0 | FGFR2 = 0 | FGFR3 = 0 | FGR 0 | FLT3 = 0 | FYN 0 | GSK3A 0 | HER2 = 0 | INSRR 0

Cc1ccc(S(=O)(=O)/C=C/C#N)cc1 (10 µM)
inactive: EGFR 0 | EGFR_G719S 0 | EGFR_G719S_T790M 0 | EGFR_L718V 0 | EGFR_L858R 0 | EGFR_L861Q 0 | EGFR_T790M 0 | EPHA2 = 0 | ERBB3 = 0 | [1] 0 | ERN1 = 0 | FGFR1 = 0 | FGFR2 = 0 | FGFR3 = 0 | FGR 0 | FLT3 = 0 | FYN 0 | GSK3A 0 | HER2 = 0 | INSRR 0

CCn1c(C(=O)N(C2CC2)C2CC2)cc2c3c(ncn3C)c(Nc3cc(C)n(C)n3)nc21 (10 µM)
inactive: EGFR 0 | EGFR_G719S 0 | EGFR_G719S_T790M 0 | EGFR_L718V 0 | EGFR_L858R 0 | EGFR_L861Q 0 | EGFR_T790M 0 | EPHA2 = 0 | ERBB3 = 0 | [1] 0 | ERN1 = 0 | FGFR1 = 0 | FGFR2 = 0 | FGFR3 = 0 | FGR 0 | FLT3 = 0 | FYN 0 | GSK3A 0 | HER2 = 0 | INSRR 0

Nc1cc(Nc2ccc(S(N)(=O)=O)cc2)ncn1 (10 µM)
inactive: EGFR 0 | EGFR_G719S 0 | EGFR_G719S_T790M 0 | EGFR_L718V 0 | EGFR_L858R 0 | EGFR_L861Q 0 | EGFR_T790M 0 | EPHA2 = 0 | ERBB3 = 0 | [1] 0 | ERN1 = 0 | FGFR1 = 0 | FGFR2 = 0 | FGFR3 = 0 | FGR 0 | FLT3 = 0 | FYN 0 | GSK3A 0 | HER2 = 0 | INSRR 0

COc1c(NC(=O)C(=O)c2ccc(OCCN3CCOCC3)c3ccccc23)cc(C(C)(C)C)cc1NS(C)(=O)=O (2.5 µM)
inactive: EGFR 0 | EGFR_G719S 0 | EGFR_G719S_T790M 0 | EGFR_L718V 0 | EGFR_L858R 0 | EGFR_L861Q 0 | EGFR_T790M 0 | EPHA2 = 0 | ERBB3 = 0 | [1] 0 | ERN1 = 0 | FGFR1 = 0 | FGFR2 = 0 | FGFR3 = 0 | FGR 0 | FLT3 = 0 | FYN 0 | GSK3A 0 | HER2 = 0 | INSRR 0

OCCNC1CCCc2c1[nH]c1ccc(-c3ccccc3)cc21 (stereo not given) (2.5 µM)
inactive: EGFR 0 | EGFR_G719S 0 | EGFR_G719S_T790M 0 | EGFR_L718V 0 | EGFR_L858R 0 | EGFR_L861Q 0 | EGFR_T790M 0 | EPHA2 = 0 | ERBB3 = 0 | [1] 0 | ERN1 = 0 | FGFR1 = 0 | FGFR2 = 0 | FGFR3 = 0 | FGR 0 | FLT3 = 0 | FYN 0 | GSK3A 0 | HER2 = 0 | INSRR 0

Cc1c(NC(=O)OC[C@@H]2COCCN2)cn2ncnc(Nc3ccc4c(cnn4Cc4cccc(F)c4)c3)c12 (10 µM)
inactive: EGFR 0 | EGFR_G719S 0 | EGFR_G719S_T790M 0 | EGFR_L718V 0 | EGFR_L858R 0 | EGFR_L861Q 0 | EGFR_T790M 0 | EPHA2 = 0 | ERBB3 = 0 | [1] 0 | ERN1 = 0 | FGFR1 = 0 | FGFR2 = 0 | FGFR3 = 0 | FGR 0 | FLT3 = 0 | FYN 0 | GSK3A 0 | HER2 = 0 | INSRR 0

C=C1C(=O)O[C@@H]2C[C@@]3(C)CCC[C@H](C)C3=C[C@H]12 [Alantolactone] (10 µM)
inactive: EGFR 0 | EGFR_G719S 0 | EGFR_G719S_T790M 0 | EGFR_L718V 0 | EGFR_L858R 0 | EGFR_L861Q 0 | EGFR_T790M 0 | EPHA2 = 0 | ERBB3 = 0 | [1] 0 | ERN1 = 0 | FGFR1 = 0 | FGFR2 = 0 | FGFR3 = 0 | FGR 0 | FLT3 = 0 | FYN 0 | GSK3A 0 | HER2 = 0 | INSRR 0

CC(=O)c1c(C)c2cnc(Nc3ccc(N4CCN(CCCCNC(=O)COc5cccc6c5C(=O)N(C5CCC(=O)NC5=O)C6=O)CC4)cn3)nc2n(C2CCCC2)c1=O (stereo not given) (10 µM)
inactive: EGFR 0 | EGFR_G719S 0 | EGFR_G719S_T790M 0 | EGFR_L718V 0 | EGFR_L858R 0 | EGFR_L861Q 0 | EGFR_T790M 0 | EPHA2 = 0 | ERBB3 = 0 | [1] 0 | ERN1 = 0 | FGFR1 = 0 | FGFR2 = 0 | FGFR3 = 0 | FGR 0 | FLT3 = 0 | FYN 0 | GSK3A 0 | HER2 = 0 | INSRR 0

2 compounds drawn at random from the list so far, as already listed:
COc1c(NC(=O)C(=O)c2ccc(OCCN3CCOCC3)c3ccccc23)cc(C(C)(C)C)cc1NS(C)(=O)=O (2.5 µM)
inactive: EGFR 0 | EGFR_G719S 0 | EGFR_G719S_T790M 0 | EGFR_L718V 0 | EGFR_L858R 0 | EGFR_L861Q 0 | EGFR_T790M 0 | EPHA2 = 0 | ERBB3 = 0 | [1] 0 | ERN1 = 0 | FGFR1 = 0 | FGFR2 = 0 | FGFR3 = 0 | FGR 0 | FLT3 = 0 | FYN 0 | GSK3A 0 | HER2 = 0 | INSRR 0

CC(=O)c1c(C)c2cnc(Nc3ccc(N4CCN(CCCCNC(=O)COc5cccc6c5C(=O)N(C5CCC(=O)NC5=O)C6=O)CC4)cn3)nc2n(C2CCCC2)c1=O (stereo not given) (10 µM)
inactive: EGFR 0 | EGFR_G719S 0 | EGFR_G719S_T790M 0 | EGFR_L718V 0 | EGFR_L858R 0 | EGFR_L861Q 0 | EGFR_T790M 0 | EPHA2 = 0 | ERBB3 = 0 | [1] 0 | ERN1 = 0 | FGFR1 = 0 | FGFR2 = 0 | FGFR3 = 0 | FGR 0 | FLT3 = 0 | FYN 0 | GSK3A 0 | HER2 = 0 | INSRR 0

Following part:

CC(C)CN[C@H]1CS(=O)(=O)C[C@@H]1S(=O)(=O)c1ccc(Cl)cc1 (10 µM)
inactive: EGFR 0 | EGFR_G719S 0 | EGFR_G719S_T790M 0 | EGFR_L718V 0 | EGFR_L858R 0 | EGFR_L861Q 0 | EGFR_T790M 0 | EPHA2 = 0 | ERBB3 = 0 | [1] 0 | ERN1 = 0 | FGFR1 = 0 | FGFR2 = 0 | FGFR3 = 0 | FGR 0 | FLT3 = 0 | FYN 0 | GSK3A 0 | HER2 = 0 | INSRR 0

Cc1cc(Nc2cc3ncccc3c(N[C@@H]3C[C@H]4CC[C@@H](C3)N4CCC#N)n2)n[nH]1 [Izencitinib] (10 µM)
inactive: EGFR 0 | EGFR_G719S 0 | EGFR_G719S_T790M 0 | EGFR_L718V 0 | EGFR_L858R 0 | EGFR_L861Q 0 | EGFR_T790M 0 | EPHA2 = 0 | ERBB3 = 0 | [1] 0 | ERN1 = 0 | FGFR1 = 0 | FGFR2 = 0 | FGFR3 = 0 | FGR 0 | FLT3 = 0 | FYN 0 | GSK3A 0 | HER2 = 0 | INSRR 0

CCN(CC)S(=O)(=O)c1ccc(OC)c(N2CCN(C(=O)c3ccc(F)cc3C(F)(F)F)CC2)c1 (10 µM)
inactive: EGFR 0 | EGFR_G719S 0 | EGFR_G719S_T790M 0 | EGFR_L718V 0 | EGFR_L858R 0 | EGFR_L861Q 0 | EGFR_T790M 0 | EPHA2 = 0 | ERBB3 = 0 | [1] 0 | ERN1 = 0 | FGFR1 = 0 | FGFR2 = 0 | FGFR3 = 0 | FGR 0 | FLT3 = 0 | FYN 0 | GSK3A 0 | HER2 = 0 | INSRR 0
